Molecules are shown by their SMILES.

From patent US7083655B2, “Hair dye composition” (Kao Corporation, priority 2002, dated 2006) come the findings set out here.

Data set [1] in a line: Dyeing performance, General Formulation A (alkaline peroxide), on goat hair. Conditions: undamaged white goat hair; for Colour of Dyed Hair / L / a / b / Colour: General Formulation A.
Data set [2] in a line: Wash fade (resistance to shampoo washing, 20 washes). Conditions: General Formulation A, 15 mins at 50° C., damaged (permed) white goat hair; 20 shampoo washes, 40 C water rinse.
[3] abbreviates: Table 1a, pH 10, 50° C. for 15 min.
Where [4] appears, read: Table 1a, pH 10, 50° C. for 15 min, Minolta.
Where [5] appears, read: Table 1a, before vs after colouring.
Setting [6] is: Table 2a, comparison with anionic dyes, 15 mins at 50° C.

Regarding `CCSc1nnc(/N=N/c2c(C(C)(C)C)nn3nc(C(C)C)[nH]c23)s1` [Dye D-84], in data set [1] (setting [3]), the “Colour of Dyed Hair” value is listed as “Very Intense Yellow”. In data set [1] (setting [4]), this molecule registered an L of 79, an a of 8 and a b of 84. Also, the “Delta E” value in data set [1] (setting [5]) was 71.

For the molecule `CCSc1nsc(/N=N/c2cc(Cl)c(O)cc2Cl)n1` [Dye D-38], the “Colour of Dyed Hair” value in data set [1] (setting [3]) is reported as “Intense Red/Magenta”. In data set [1] (setting [4]), this molecule gave an L of 44, an a of 57 and a b of 6. For the same molecule, the “Delta E” value in data set [1] (setting [5]) amounted to 70.

Take `Oc1ccc(/N=N/c2nc3ccccc3s2)cc1Cl` [Dye D-95]: in data set [1] (setting [3]), the “Colour of Dyed Hair” value is “Bright Red”. Also, in data set [1] (setting [4]), the L was determined as 51, the a is 52 and the b is 14. In addition, in data set [1] (setting [5]), the “Delta E” value came to 62.

With `CSc1nnc(/N=N/c2ccc(O)c(NC(C)=O)c2)s1` [Dye D-91], the “Colour of Dyed Hair” value in data set [1] (setting [3]) is on record as “Bight Magenta”. In data set [1] (setting [4]), this molecule gave an L of 38, an a of 61 and a b of 3. The “Delta E” value in data set [1] (setting [5]) is listed as 77.

For the molecule `N#CC1=NN(c2ccccc2)C(=O)C1/N=N/c1ccc(C(=O)O)cc1` (stereo not drawn) [A*, reference compound], the “Delta E” value in data set [1] (Table 2a, colour uptake) is given as 42. In addition, in data set [1] (setting [6]), the Colour entry is reported as “Pale Yellow”, the L stood at 86, the a is −6 and the b is listed as 41.

Take `CC(C)C(=O)Nc1cc(/N=N/c2snc3ccc(S(C)(=O)=O)cc23)ccc1O` [Dye D-87]: in data set [1] (setting [3]), the “Colour of Dyed Hair” value was “Intense Blue”. In data set [1] (setting [4]), the L is reported as 47, the a is −5 and the b was −24. The “Delta E” value in data set [1] (setting [5]) turned out to be 55.

As for `CCc1nn2c(-c3ccc(OC)c(NS(C)(=O)=O)c3)n[nH]c2c1/N=N/c1nc(C(C)C)no1` [Dye D-81], the “Colour of Dyed Hair” value in data set [1] (setting [3]) is recorded as “Intense Yellow”. In data set [1] (setting [4]), this molecule registered an L of 84, an a of −4 and a b of 60. Also, the “Delta E” value in data set [1] (setting [5]) is given as 46.

`CC(=O)Nc1cc(/N=N/c2nncs2)ccc1O` [Dye D-29]: the “Colour of Dyed Hair” value in data set [1] (setting [3]) is given as “Bright Intense Red”. In data set [1] (setting [4]), this molecule registered an L of 46, an a of 63 and a b of 23. For the same molecule, the “Delta E” value in data set [1] (setting [5]) is 73.

As to `N#CC1=NN(c2ccccc2)C(=O)C1/N=N/c1ccc(S(=O)(=O)[O-])cc1.[Na+]` (stereo not drawn) [B*, reference compound], the “Delta E” value in data set [1] (Table 2a, colour uptake) is recorded as 43. Moreover, in data set [1] (setting [6]), the Colour result is listed as “Pale Yellow”, the L is 85, the a is −5 and the b came to 42.

Regarding `CCSc1nnc(/N=N/c2c(C(C)(C)C)nn3nc(C)[nH]c23)s1` [Dye D-96], in data set [1] (setting [3]), the “Colour of Dyed Hair” value is “Bright Yellow”. In data set [1] (setting [4]), this molecule registered an L of 78, an a of 11 and a b of 88. Moreover, the “Delta E” value in data set [1] (setting [5]) was 75.

Turning to `N#CC1=NN(c2ccccc2)C(=O)C1/N=N/c1nncs1` [Dye D-82], in data set [1] (setting [3]), the “Colour of Dyed Hair” value was “Intense Yellow”. In data set [1] (setting [4]), the L is 77, the a is 7 and the b stood at 76. Also, in data set [1] (setting [5]), the “Delta E” value came to 63. Further, in data set [1] (Table 2a, colour uptake), the “Delta E” value is 63. Moreover, in data set [1] (setting [6]), the Colour result is recorded as “Very Intense Yellow”, the L turned out to be 77, the a was found to be 7 and the b is 76.

In the case of `Oc1c(Cl)cc(/N=N/c2nncs2)cc1Cl` [Dye D-56], the “Colour of Dyed Hair” value in data set [1] (setting [3]) is on record as “Bright Intense Orange”. In data set [1] (setting [4]), this molecule gave an L of 64, an a of 43 and a b of 35. Also, the “Delta E” value in data set [1] (setting [5]) came to 51.

On to `CCSc1nsc(/N=N/c2c(C(C)(C)C)nn3nc(C(C)C)[nH]c23)n1` [Dye D-78], for which the “Colour of Dyed Hair” value in data set [1] (setting [3]) is listed as “Intense Yellow”. For the same molecule, in data set [1] (setting [4]), the L stood at 77, the a is 14 and the b is listed as 76. In data set [1] (setting [5]), the “Delta E” value is 64.

For `Cc1nsc(/N=N/c2cc(F)c(O)c(F)c2)c1C#N` [Dye D-43], the “Colour of Dyed Hair” value in data set [1] (setting [3]) is recorded as “Intense Magenta”. In addition, in data set [1] (setting [4]), the L is listed as 49, the a is reported as 50 and the b was −8. Besides, the “Delta E” value in data set [1] (setting [5]) worked out at 65.

As to `CCSc1nnc(/N=N/c2ccc(O)c3cccc(/N=[SH]/OOC)c23)s1` [Dye D-97], the “Colour of Dyed Hair” value in data set [1] (setting [3]) was “Dark Blue-Violet”. In data set [1] (setting [4]), this molecule returned an L of 29, an a of 34 and a b of −43. For the same molecule, the “Delta E” value in data set [1] (setting [5]) was determined as 85.

Take `COc1cc(/N=N/c2snc(C)c2C#N)ccc1O` [Dye D-39]: in data set [1] (setting [3]), the “Colour of Dyed Hair” value was “Bright Violet”. Moreover, in data set [1] (setting [4]), the L is on record as 29, the a was 48 and the b is listed as −25. Further, the “Delta E” value in data set [1] (setting [5]) was determined as 83.

Regarding `CCSc1nsc(/N=N/c2cc(Cl)c(O)c(NC(=O)CC)c2)n1` [Dye D-30], the “Colour of Dyed Hair” value in data set [1] (setting [3]) was “Intense Magenta”. Also, in data set [1] (setting [4]), the L is 50, the a came out at 47 and the b is recorded as −19. In addition, the “Delta E” value in data set [1] (setting [5]) was 67.

As for `Cc1cc(/N=N/c2snc(C)c2C#N)ccc1O` [Dye D-37], the “Colour of Dyed Hair” value in data set [1] (setting [3]) is listed as “Dark Intense Magenta”. In data set [1] (setting [4]), this molecule came in with an L of 29, an a of 50 and a b of −4. For the same molecule, the “Delta E” value in data set [1] (setting [5]) is given as 76. Further, the “Delta E fade from 20 Washes” value in data set [2] stood at 4.

As to `CC(=O)Nc1cc(/N=N/c2nncs2)c(NC(C)=O)cc1O` [Dye D-46], in data set [1] (setting [3]), the “Colour of Dyed Hair” value is given as “Bright Pink Red”. Further, in data set [1] (setting [4]), the L came out at 57, the a amounted to 53 and the b came out at 6. The “Delta E” value in data set [1] (setting [5]) is 60.

For `CS(=O)(=O)c1cc([N+](=O)[O-])ccc1/N=N/c1ccc(O)c2cccc(S(=O)(=O)O)c12` [C*, reference compound], in data set [1] (Table 3a), the Colour entry is given as “Pale Cyan”, the L was determined as 65, the a is listed as −13 and the b came to 2. For the same molecule, the “Delta E” value in data set [1] (Table 3a, colour uptake) was found to be 23.

As to `COO/[SH]=N/c1cccc2c(O)ccc(/N=N/c3nc4ccccc4s3)c12` [Dye D-98], the “Colour of Dyed Hair” value in data set [1] (setting [3]) is “Dark Blue”. Also, in data set [1] (setting [4]), the L was found to be 27, the a came to 23 and the b is recorded as −37. Further, the “Delta E” value in data set [1] (setting [5]) worked out at 80.

For `Cc1nsc(/N=N/c2ccc(O)c(Cl)c2)c1C#N` [Dye D-41], the “Colour of Dyed Hair” value in data set [1] (setting [3]) is listed as “Intense Magenta”. In data set [1] (setting [4]), this molecule registered an L of 35, an a of 57 and a b of −9. For the same molecule, the “Delta E” value in data set [1] (setting [5]) came to 79. Besides, in data set [2], the “Delta E fade from 20 Washes” value amounted to 2.

In the case of `CCOC(=O)c1ccc(N2C(=O)C(C#N)=C(C)C(/N=N/c3nncs3)C2=O)cc1` [Dye D-80], the “Colour of Dyed Hair” value in data set [1] (setting [3]) was “Intense Yellow”. In data set [1] (setting [4]), this molecule gave an L of 79, an a of 11 and a b of 57. In data set [1] (setting [5]), the “Delta E” value is reported as 45.

For `CCSc1nnc(/N=N/c2c(-c3ccccc3Cl)nn3nc(C(C)C)[nH]c23)s1` [Dye D-79], the “Colour of Dyed Hair” value in data set [1] (setting [3]) was “Intense Gold”. In data set [1] (setting [4]), this molecule yielded an L of 77, an a of 12 and a b of 74. Moreover, the “Delta E” value in data set [1] (setting [5]) is 61.

With `CC(C)(C)c1cc(/N=N/c2nc(-c3cccc(NS(C)(=O)=O)c3)ns2)cc(NC(=O)c2cccc(NS(C)(=O)=O)c2)c1O` [Dye D-89], the “Colour of Dyed Hair” value in data set [1] (setting [3]) is given as “Bright Pink/Magenta”. For the same molecule, in data set [1] (setting [4]), the L is listed as 53, the a worked out at 44 and the b is reported as −16. In addition, the “Delta E” value in data set [1] (setting [5]) was 63.

For the molecule `CO/C=N/c1cc(/N=N/c2snc3ccc(S(C)(=O)=O)cc23)cc(NC(=O)C(C)C)c1O` [Dye D-85], in data set [1] (setting [3]), the “Colour of Dyed Hair” value is “Intense Cyan”. For the same molecule, in data set [1] (setting [4]), the L worked out at 47, the a worked out at 26 and the b was −33. Besides, the “Delta E” value in data set [1] (setting [5]) came out at 66.

Take `CC(=O)Nc1cc(/N=N/c2nc3ccccc3s2)ccc1O` [Dye D-94]: the “Colour of Dyed Hair” value in data set [1] (setting [3]) is “Dark Magenta”. In data set [1] (setting [4]), this molecule came in with an L of 30, an a of 51 and a b of −1. Besides, the “Delta E” value in data set [1] (setting [5]) stood at 75.

Take `N#CC(/N=N/c1nc(-c2ccccc2)ns1)C(=O)c1ccco1` [Dye D-83]: the “Colour of Dyed Hair” value in data set [1] (setting [3]) was “Intense Yellow-Orange”. For the same molecule, in data set [1] (setting [4]), the L is 80, the a worked out at 0 and the b is 79. For the same molecule, the “Delta E” value in data set [1] (setting [5]) was 66.
